Laboratory results reported in US12605480B2, “Tough gel-based drug delivery compositions and methods thereof” (priority 2019, dated 2026).
For at least one compound, name, drawing or mass did not settle the structure.

Legend:
[1] = Size of dry corticosteroid particles (SEM); assay type: physicochemical; settings: dry powder
[2] = Drug release in sink conditions (HBSS), LC-MS; assay type: physicochemical; settings: 100 mg/ml CORT, Sandoz (NIBR) vs TRC
[3] = Seki et al.; cited from earlier work

CC1(C)O[C@@H]2C[C@H]3[C@@H]4CCC5=CC(=O)C=C[C@]5(C)[C@@]4(F)[C@@H](O)C[C@]3(C)[C@]2(C(=O)CO)O1 [Sandoz, Triamcinolone acetonide]
D(4,3) [1]: 3.27 μm | ×10 [1]: 1.24 μm | ×50 [1]: 2.84 μm | ×90 [1]: 5.62 μm | release rate compared between suppliers [2]: released at a higher rate

CC1(C)O[C@@H]2C[C@H]3[C@@H]4CCC5=CC(=O)C=C[C@]5(C)[C@@]4(F)[C@@H](O)C[C@]3(C)[C@]2(C(=O)CO)O1 [TRC, Triamcinolone acetonide]
D(4,3) [1]: 21.79 μm | ×10 [1]: 2.82 μm | ×50 [1]: 15.29 μm | ×90 [1]: 47.52 μm

CC1(C)O[C@@H]2C[C@H]3[C@@H]4CCC5=CC(=O)C=C[C@]5(C)[C@@]4(F)[C@@H](O)C[C@]3(C)[C@]2(C(=O)CO)O1 [Triamcinolone acetonide]
diffusion constant in water (reported) [3]: 673 μm^2/s
